{
  "source": "PubChem BioAssay AID540276",
  "about": "(National Center for Advancing Translational Sciences (NCATS), 2011)",
  "note": "Values joined by “and” are separate entries in the source; they are usually repeats but may differ in a detail not shown here. Identical values can stand only once. The campaign covered roughly 300,000 compounds. About 5,400 (1.8%) were called active. This list was built around the results that the source calls inconclusive (neither active nor inactive); the mix of calls is not that of the screen. Calls come from the whole dose curve; tested in HEK293 cells. Potencies beside an inconclusive call are fits to weak or partial responses and may not hold up. % is set by controls: 0 for no effect and ±100 for the full control effect; potency is the fitted concentration of half-maximal effect.",
  "data": [
    {"test": "qHTS for inhibitors of binding or entry into cells for Marburg Virus", "settings": "Marburg virus pseudotyped entry inhibition, cell reporter; activity change, negative = inhibition: at 37.8 µM (top of the series) unless noted", "values": [
      {"smiles": "C/C(=C\\C(=O)N1CCc2ccccc21)C(=O)O", "Potency": "inconclusive: 5.62 µM [activator, full curve, poor fit]"},
      {"smiles": "Cc1ccc(CNCC2CCCO2)o1", "note": "(configuration not stated)", "activity change, negative = inhibition": "inactive: 21.4%"},
      {"smiles": "Cc1cc(C)c(C#N)c(SCc2ccc([N+](=O)[O-])cc2)n1", "activity change, negative = inhibition": "inactive: -1.14% [at 46.1 µM]"},
      {"smiles": "CCn1c(CNC(=O)c2cc(OC)c(OC)c(OC)c2)cc2ccccc21", "Potency": "inconclusive: 14.1 µM [inhibitor, partial curve, poor fit]"},
      {"smiles": "CCCc1cc(C(=O)Nc2ccc(C(=O)c3ccc(C)cc3)cc2)n(C)n1", "Potency": "inconclusive: 11.2 µM [inhibitor, partial curve, poor fit]"},
      {"smiles": "CCC1CCc2c(sc(NC(=O)c3cnccn3)c2C(N)=O)C1", "note": "(configuration not stated)", "Potency": "inconclusive: 0.891 µM [activator, full curve, poor fit]"},
      {"smiles": "CC(=O)c1sc(NC(=O)c2ccc(C(C)(C)C)cc2)nc1C", "Potency": "inconclusive: 6.31 µM [activator, single point]"},
      {"smiles": "CC(C)c1ccccc1NC(=S)NN(Cc1ccccc1)c1ccccc1", "activity change, negative = inhibition": "inactive: -20.4%"},
      {"smiles": "CC(=O)/C(=C/c1ccc(N(C)C)cc1)C(=O)c1ccccc1", "activity change, negative = inhibition": "inactive: 15.8%"},
      {"smiles": "Cc1cc(C(=O)N/N=C/c2cccc3ccccc23)c(C)o1", "Potency": "active: 7.94 µM"},
      {"smiles": "Cc1cc(NC(=O)C2CC(=O)N(c3ccccc3C)C2)no1", "note": "(configuration not stated)", "activity change, negative = inhibition": "inactive: -6.12% [at 46.1 µM]"},
      {"smiles": "CN1CN(c2ccccc2)C2(CCN(CCCSc3ccccc3NC(=O)/C=C/c3ccccc3)CC2)C1=O", "Potency": "inconclusive: 8.91 µM [inhibitor, partial curve, poor fit]"},
      {"smiles": "CCOC(=O)N1CCN(S(=O)(=O)CCNC(=O)c2ccc(F)cc2)CC1", "Potency": "inconclusive: 11.2 µM [activator, single point]"},
      {"smiles": "CCCn1c(SCC(=O)N2CC(=O)Nc3ccccc32)nc2ccccc21", "activity change, negative = inhibition": "inactive: -22.2% [at 46.1 µM]"},
      {"smiles": "Fc1cccc(/C=N/N=C/c2cccc(F)c2)c1", "Potency": "inactive and inconclusive: 562 nM [activator, partial curve, poor fit]"},
      {"smiles": "Cc1ccc(C(=O)NNC(=O)c2cc(OCC(F)(F)F)ccc2OCC(F)(F)F)cc1", "activity change, negative = inhibition": "inactive: -6.75%"},
      {"smiles": "CCOc1ccc2nc(NC(=O)C3=NNC(=O)CC3)sc2c1", "Potency": "inconclusive: 14.1 µM [activator, partial curve, poor fit]"},
      {"smiles": "Cc1ccc(S(=O)(=O)c2nc(-c3cccs3)oc2N2CCC(C)CC2)cc1", "activity change, negative = inhibition": "inactive: -17.9% [at 46.1 µM]"},
      {"smiles": "Cc1ccc(-n2c(SCC(=O)Nc3ccc(N4CCOCC4)cc3)nc3ccccc3c2=O)cc1", "Potency": "inconclusive: 12.6 µM [inhibitor, partial curve]"},
      {"smiles": "COc1cc(CC(=O)Nc2nc(C)cs2)cc(OC)c1OC", "Potency": "inconclusive: 10 µM [inhibitor, partial curve, poor fit]"},
      {"smiles": "O=c1c2cc(-c3ccccc3)sc2nc2n1N=C(c1ccccc1)CS2", "Potency": "inconclusive: 15.8 µM [activator, partial curve, poor fit]"},
      {"smiles": "CN(Cc1cccc(Cl)c1Cl)C(=O)c1cccc(S(=O)(=O)N2CCN(Cc3ccccc3)CC2)c1", "Potency": "inconclusive: 10 µM [inhibitor, partial curve, poor fit]"},
      {"smiles": "O=C(COc1cccnc1[N+](=O)[O-])NC1CCS(=O)(=O)C1", "note": "(configuration not stated)", "Potency": "inconclusive: 0.1 µM [activator, full curve, poor fit]"},
      {"smiles": "Cc1ccc(N(CC(=O)NCC2CCCO2)S(=O)(=O)c2ccccc2)c(C)c1", "note": "(configuration not stated)", "Potency": "inconclusive: 22.4 µM [inhibitor, single point]"},
      {"smiles": "O=C(NC1CC1)c1cccc(NC(=O)c2cn3ccccc3n2)c1", "Potency": "inconclusive: 0.891 µM [activator, full curve, poor fit]"},
      {"smiles": "COc1ccccc1NS(=O)(=O)c1cc(Cl)ccc1OC", "Potency": "inconclusive: 35.5 µM [inhibitor, single point]"},
      {"smiles": "COc1ccccc1CNS(=O)(=O)c1cc(C(=O)NCC2CCCO2)c(Cl)cc1Cl", "note": "(configuration not stated)", "activity change, negative = inhibition": "inactive: 2.97% [at 46.1 µM]"},
      {"smiles": "Cc1ccc(N(C)C(=O)CCNC(=O)Cn2cnc3ccccc3c2=O)cc1C", "Potency": "inconclusive: 3.16 µM [inhibitor, single point]"},
      {"smiles": "O=C(Cn1c(=O)c2cccn2c2ccccc21)NCc1cccc(F)c1", "activity change, negative = inhibition": "inactive: 0.547% [at 46.1 µM]"},
      {"smiles": "COc1ccc(CNC(=O)[C@@H](NC(=O)C2CCN(S(=O)(=O)c3ccccc3)CC2)C(C)C)cc1", "Potency": "inconclusive: 0.562 µM [inhibitor, partial curve, poor fit]"},
      {"smiles": "CCCn1c(CN2CCN(C(=O)OCC)CC2)nc2cc([N+](=O)[O-])ccc21", "Potency": "inconclusive: 3.98 µM [activator, single point]"},
      {"smiles": "Cc1ccc(OCC(=O)Nc2ccccc2[N+](=O)[O-])c(Br)c1", "Potency": "inconclusive: 22.4 µM [inhibitor, single point]"},
      {"smiles": "O=C(CSc1nc2[nH]c(=O)cc(O)c2s1)Nc1cc(Cl)cc(Cl)c1", "Potency": "inconclusive: 25.1 µM [activator, partial curve, poor fit]"},
      {"smiles": "CCOC(=O)C1CCN(C(=O)c2ccc3c(=O)n4c(nc3c2)CCCCC4)CC1", "Potency": "inconclusive: 12.6 µM [activator, single point]"},
      {"smiles": "CCOc1cccc(NC(=O)C2CC(=O)N(C)C(=Nc3ccccc3)S2)c1", "note": "(configuration not stated)", "Potency": "inconclusive: 20.6 µM [inhibitor, single point]"},
      {"smiles": "Cc1ccc(S(=O)(=O)N2CCN(C(=O)C(C)Cn3cncn3)CC2)cc1", "note": "(configuration not stated)", "activity change, negative = inhibition": "inconclusive: 2.55% [activator] [at 46.1 µM]"},
      {"smiles": "CCCCn1c(N)c(N(CCOC)C(=O)c2cc(-c3ccco3)nc3ccccc23)c(=O)[nH]c1=O", "activity change, negative = inhibition": "inactive: 6.25%"},
      {"smiles": "CCc1ccccc1Nc1sc(C(=O)c2ccccc2)c(N)c1S(=O)(=O)c1ccccc1", "Potency": "inconclusive: 14.1 µM [inhibitor, single point]"},
      {"smiles": "O=C(Nc1ccc2oc(-c3ccccc3Cl)nc2c1)c1ncn[nH]1", "Potency": "inconclusive: 2.91 µM [activator, single point]"},
      {"smiles": "CCN(CC)CCOC(=O)c1ccccc1Br", "Potency": "inconclusive: 5.01 µM [activator, single point]"},
      {"smiles": "O=[N+]([O-])NC1=NCN(Cc2ccco2)CN1Cc1ccco1", "Potency": "active: 0.282 µM"},
      {"smiles": "COc1ccc(-c2c(N)nnc3c2[nH]c2ccccc23)cc1OC", "Potency": "inconclusive: 8.91 µM [inhibitor, partial curve, poor fit]"},
      {"smiles": "CN(C)c1nnnn1-c1ccc(Oc2ncc(C(F)(F)F)cc2Cl)cc1", "Potency": "inconclusive: 2.24 µM [inhibitor, partial curve, poor fit]"},
      {"smiles": "S=C(NN=Cc1ccccn1)N(Cc1ccccn1)Cc1ccccn1", "Potency": "active: 1.26 µM"},
      {"smiles": "COCCNc1nc2c(c(=O)[nH]c(=O)n2C)n1CCCc1ccccc1", "activity change, negative = inhibition": "inactive: 6.22%"},
      {"smiles": "COC(=O)c1ccc(N2C(=O)CC(Sc3n[nH]c(C)n3)C2=O)cc1", "note": "(configuration not stated)", "activity change, negative = inhibition": "inactive: -4.93%"},
      {"smiles": "COC(=O)c1cc(-c2ccccc2)sc1N", "Potency": "inconclusive: 35.5 µM [inhibitor, single point]"},
      {"smiles": "CC(C)(C)C(=O)Nc1ccc2c(c1)OCCOCCOc1cc(NC(=O)C(C)(C)C)ccc1OCCOCCO2", "Potency": "inconclusive: 2.82 µM [activator, single point]"},
      {"smiles": "CC(C)Cc1ccc(S(=O)(=O)N2CCN(C(=O)c3ccco3)CC2)cc1", "Potency": "inconclusive: 4.61 µM [inhibitor, full curve, poor fit]"},
      {"smiles": "CCc1ccc(S(=O)(=O)c2nnn3c2nc(N(CC)Cc2ccccc2)c2cc(Cl)ccc23)cc1", "activity change, negative = inhibition": "inactive: -3.47% [at 46.1 µM]"},
      {"smiles": "O=C(CN1CCN(C(=S)NC2CCCC2)CC1)Nc1ccc(Oc2ccccc2)cc1", "Potency": "inconclusive: 35.5 µM [inhibitor, single point]"},
      {"smiles": "O=S(=O)(Cc1cc(NCc2ccccc2)nc(-c2ccccn2)n1)c1ccccc1", "Potency": "inconclusive: 35.5 µM [inhibitor, single point]"},
      {"smiles": "CCN(CC)CCOc1ccccc1OC", "Potency": "inconclusive: 1.26 µM [inhibitor, single point]"},
      {"smiles": "CC(=O)c1c(C)[nH]c(C(=O)Nc2ccc(C)cc2Br)c1C", "Potency": "inconclusive: 35.5 µM [activator, partial curve, poor fit]"},
      {"smiles": "COc1cc(CN(C(=O)COc2ccccc2)c2ccccn2)cc(OC)c1OC", "activity change, negative = inhibition": "inactive: -0.263% [at 46.1 µM]"},
      {"smiles": "Cc1ccc(NC(=O)c2cc(NC(=O)C3CC=CCC3C(=O)O)ccc2N2CCOCC2)cc1Cl", "note": "(configuration not stated)", "activity change, negative = inhibition": "inactive: -13.4%"},
      {"smiles": "Cc1nn(Cc2c(Cl)cccc2Cl)c(C)c1NC(=O)c1sc2ccccc2c1Cl", "Potency": "inconclusive: 35.5 µM [inhibitor, single point]"},
      {"smiles": "O=C(CSc1nc(N2CCCCC2)nc(N2CCCCC2)n1)N1CCN(c2ccccc2)CC1", "Potency": "inconclusive: 35.5 µM [inhibitor, single point]"},
      {"smiles": "NC(=S)NN=C1c2ccccc2-c2cc(Br)ccc21", "Potency": "inconclusive: 28.2 µM [inhibitor, single point]"},
      {"smiles": "CCCCCCOC(=O)C(C#N)c1nc2ccccc2nc1N1CCN(CC)CC1", "note": "(configuration not stated)", "Potency": "active: 4.61 µM"},
      {"smiles": "CC1CC(S)NC(C2=NCCCC2)N1", "note": "(configuration not stated)", "Potency": "inconclusive: 35.5 µM [inhibitor, single point]"},
      {"smiles": "Fc1ccc(C(OCCN2CCCC2)c2ccc(Br)cc2)cc1", "note": "(configuration not stated)", "Potency": "inconclusive: 29.1 µM [inhibitor, single point]"},
      {"smiles": "COc1cc2c(C(=O)N(C)c3cccc(C(F)(F)F)c3)cn(CC(C)C)c(=O)c2cc1OC", "Potency": "inconclusive: 15.8 µM [inhibitor, partial curve, poor fit]"},
      {"smiles": "Nc1c2c(nc3sc4c(c13)CCCC4)CCCC2", "Potency": "inconclusive: 3.55 µM [activator, single point]"},
      {"smiles": "COCCn1c(SCc2nc3scc(-c4ccc(Cl)cc4)c3c(=O)[nH]2)nnc1-c1cccc(C)c1", "Potency": "inconclusive: 15.8 µM [inhibitor, single point]"},
      {"smiles": "O=C(Nc1ccc2c(c1)OCO2)NC1(C(F)(F)F)Oc2ccccc2O1", "activity change, negative = inhibition": "inactive: 20.1%"},
      {"smiles": "CCC(Nc1ccc(-c2nc(-c3ccccn3)no2)cc1[N+](=O)[O-])c1ccccc1", "note": "(configuration not stated)", "activity change, negative = inhibition": "inactive: 7.86% [at 46.1 µM]"}
    ]}
  ]
}
